Measured data: PubChem BioAssay AID1508597 (Cure First, 2020)

Purpose: 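Knock-downs altering ovarian cancer cell survival with or without PARP inhibitor rucaparib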 (primary screen)
Cell system: human ovarian carcinoma lines grown from tumours: OCI-P5x (papillary serous) and OCI-C5x (clear cell)
Reagents: siRNA pool against human genes, 1.25 pmol siRNA per well
Time to read-out: 72 h or 96 h, depending on the cell culture
Challenge: rucaparib 20 µM (about IC30) or vehicle, present until read-out
Rucaparib or vehicle: Rucaparib
Cell line: OCI-P5x (serous)
Measurement: 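Luminescent ATP-based viability assay read 72 or 96 h after transfection, depending on culture, given as normalised percent viability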
Reading the numbers: viability, normalised: higher = more viable cells remaining
Call rule: 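Active when normalised viability falls below 80 percent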
Calls: active = viability under 80%; inactive = viability 80% or more
This is an unselected part of the about 2,100 reagents, in one setting of the screen. 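Calls flag viability under 80% in either arm, not effects specific to rucaparib; the reference for percent is not stated.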 Entries without a mark were called inactive. Some reagents were tested in more than one well and are listed for each. The record does not give: the 100% reference.

With CHD9 (chromodomain helicase DNA binding protein 9), technical replicate 1, how do the results read?
viability, normalised (%): 83.1

Which result is listed for CHD9 (chromodomain helicase DNA binding protein 9), technical replicate 2?
viability, normalised (%): 74.9 (active)

For CHD9 (chromodomain helicase DNA binding protein 9), technical replicate 3, what does the deposit list?
viability, normalised (%): 93.8

With SULT1A2 (sulfotransferase family 1A member 2), technical replicate 1, how do the results read?
viability, normalised (%): 53.2 (active)

With SULT1A2 (sulfotransferase family 1A member 2), technical replicate 2, what was measured?
viability, normalised (%): 62.4 (active)

Which result is listed for SULT1A2 (sulfotransferase family 1A member 2), technical replicate 3?
viability, normalised (%): 71.2 (active)

For ESRRB (estrogen related receptor beta), technical replicate 1, what was measured?
viability, normalised (%): 75.1 (active)

With ESRRB (estrogen related receptor beta), technical replicate 2, how do the results read?
viability, normalised (%): 91.1

What is on record for ESRRB (estrogen related receptor beta), technical replicate 3?
viability, normalised (%): 90.6

With ABL1 (ABL proto-oncogene 1, non-receptor tyrosine kinase), technical replicate 1, how do the results read?
viability, normalised (%): 91.6

Which result is listed for ABL1 (ABL proto-oncogene 1, non-receptor tyrosine kinase), technical replicate 1?
viability, normalised (%): 117

With ABL1 (ABL proto-oncogene 1, non-receptor tyrosine kinase), technical replicate 2, how do the results read?
viability, normalised (%): 94.4

For ABL1 (ABL proto-oncogene 1, non-receptor tyrosine kinase), technical replicate 2, what was measured?
viability, normalised (%): 107

With ABL1 (ABL proto-oncogene 1, non-receptor tyrosine kinase), technical replicate 3, what was measured?
viability, normalised (%): 79.5 (active)

With ABL1 (ABL proto-oncogene 1, non-receptor tyrosine kinase), technical replicate 3, what was measured?
viability, normalised (%): 99.1

6 neighbouring records already listed, for reference:
ESRRB (estrogen related receptor beta), technical replicate 2 — viability, normalised (%) = 91.1
ESRRB (estrogen related receptor beta), technical replicate 3 — viability, normalised (%) = 90.6
ABL1 (ABL proto-oncogene 1, non-receptor tyrosine kinase), technical replicate 1 — viability, normalised (%) = 91.6
ABL1 (ABL proto-oncogene 1, non-receptor tyrosine kinase), technical replicate 1 — viability, normalised (%) = 117
ABL1 (ABL proto-oncogene 1, non-receptor tyrosine kinase), technical replicate 2 — viability, normalised (%) = 94.4
ABL1 (ABL proto-oncogene 1, non-receptor tyrosine kinase), technical replicate 2 — viability, normalised (%) = 107

The listing continues.
For DYRK1A, technical replicate 1, what was measured?
viability, normalised (%): 92.7

How did the screen score DYRK1A, technical replicate 2?
viability, normalised (%): 91.7

With DYRK1A, technical replicate 3, how do the results read?
viability, normalised (%): 101

What did the screen give for TNK2 (tyrosine kinase non receptor 2), technical replicate 1?
viability, normalised (%): 109

What did the screen give for TNK2 (tyrosine kinase non receptor 2), technical replicate 2?
viability, normalised (%): 89.3

Which result is listed for TNK2 (tyrosine kinase non receptor 2), technical replicate 3?
viability, normalised (%): 89.7

Which result is listed for KMT5A (lysine methyltransferase 5A), technical replicate 1?
viability, normalised (%): 47.3 (active)

For KMT5A (lysine methyltransferase 5A), technical replicate 2, what does the deposit list?
viability, normalised (%): 50.8 (active)

What did the screen give for KMT5A (lysine methyltransferase 5A), technical replicate 3?
viability, normalised (%): 40 (active)

With MRI1 (methylthioribose-1-phosphate isomerase 1), technical replicate 1, what was measured?
viability, normalised (%): 102

With MRI1 (methylthioribose-1-phosphate isomerase 1), technical replicate 2, what does the deposit list?
viability, normalised (%): 93.7

With MRI1 (methylthioribose-1-phosphate isomerase 1), technical replicate 3, how do the results read?
viability, normalised (%): 92.3

What is on record for RAD51 (RAD51 recombinase), technical replicate 1?
viability, normalised (%): 90.1

For RAD51 (RAD51 recombinase), technical replicate 2, how do the results read?
viability, normalised (%): 84

For RAD51 (RAD51 recombinase), technical replicate 3, how do the results read?
viability, normalised (%): 88.8

With DDX60L (DExD/H-box 60 like), technical replicate 1, how do the results read?
viability, normalised (%): 56.2 (active)

With DDX60L (DExD/H-box 60 like), technical replicate 2, how do the results read?
viability, normalised (%): 57.4 (active)

With DDX60L (DExD/H-box 60 like), technical replicate 3, how do the results read?
viability, normalised (%): 54.7 (active)

How did the screen score SIRT7 (sirtuin 7), technical replicate 1?
viability, normalised (%): 37.5 (active)

Which result is listed for SIRT7 (sirtuin 7), technical replicate 2?
viability, normalised (%): 44.6 (active)

With SIRT7 (sirtuin 7), technical replicate 3, what was measured?
viability, normalised (%): 47.8 (active)

With ERCC3 (ERCC excision repair 3, TFIIH core complex helicase subunit), technical replicate 1, what does the deposit list?
viability, normalised (%): 73.6 (active)

What is on record for ERCC3 (ERCC excision repair 3, TFIIH core complex helicase subunit), technical replicate 1?
viability, normalised (%): 103

For ERCC3 (ERCC excision repair 3, TFIIH core complex helicase subunit), technical replicate 2, what was measured?
viability, normalised (%): 72.5 (active)

With ERCC3 (ERCC excision repair 3, TFIIH core complex helicase subunit), technical replicate 2, what was measured?
viability, normalised (%): 116

For ERCC3 (ERCC excision repair 3, TFIIH core complex helicase subunit), technical replicate 3, what was measured?
viability, normalised (%): 77.9 (active)

For ERCC3 (ERCC excision repair 3, TFIIH core complex helicase subunit), technical replicate 3, what was measured?
viability, normalised (%): 87.3
